Growth estimate data for 76 substances are collected here from the supplement of paper PMC5949888.

Most values lie at the floor of the assay. Slopes are relative: functional sequences can read slightly below zero.

In this data set the test system is Saccharomyces cerevisiae PS128 hsf1 delta, HSF1(1-493) fusion. Kind of data set: growth estimate (transactivation domain function in HSF1 fusion, heat-shock survival) (a.u. (slope of normalised read count over time)); higher = stronger growth at 37°C, i.e. more transactivation activity. The following applies: library: random library. The protocol:
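Random 60-nt DNA library encoding peptides of up to 20 aa, fused to the C-terminus of yeast HSF1 residues 1-493 (C-terminal TAD deleted) and expressed from the native HSF1 promoter on a CEN plasmid in hsf1-deleted S. cerevisiae PS128. Cells were selected at 37°C on -trp 5-FOA plates for 0, 2, 4, 6 and 8 days and amplicons were sequenced. Growth estimate is the slope of a robust linear fit of total-sum-normalised read counts (normalised to the first time point) over time, using at least 2 replicates. Sequences are classed functional (TAD activity) above a threshold of -0.13, set from stop-codon control sequences.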
With RNGICFLLPR, the growth estimate was below -0.25.

Take RYGVCFRSFRCGIRMNRVAL: the growth estimate was -0.231.

For the substance PSFKDPAIRGTLPT, the growth estimate was below -0.25.

For the substance HSVRLLHRFTIREAGMLWLA, the growth estimate is below -0.25.

For the substance VQIPQCCPEEEVDEVGF, the growth estimate is below -0.25.

Consider GEQTLPVFGMCSLAAKSGHR, for which the growth estimate is -0.0343.

On to GIELIDARSPFRNVPSTPGE, for which the growth estimate is below -0.25.

GWILSHCSTYQLSDMLGVTS: the growth estimate is below -0.25.

For VGSGHSSVSRRSPHIRPTLA, the growth estimate is below -0.25.

On to DIRRCLRNN, for which the growth estimate was below -0.25.

Consider QSDRNHAASVRRDGPEVTDS, for which the growth estimate is below -0.25.

Consider VGGVKANNGKYYRETPYQIP, for which the growth estimate is below -0.25.

With AIVLAERTPVIADTNFVSPT, the growth estimate was below -0.25.

As for CVVLMLGLCRIYPGIRWCVR, the growth estimate is below -0.25.

As to WRSVETYGRNRAAATTVQHS, the growth estimate is below -0.25.

As to SCTEITLSRYLGNKQGSWSK, the growth estimate is below -0.25.

As to LGGGAQGYSVVIITGHADRL, the growth estimate was below -0.25.

As to DNW, the growth estimate was below -0.25.

In the case of TTRLFVKFKE, the growth estimate is below -0.25.

On to TGECRRFLMILSDNTVMFSS, for which the growth estimate was below -0.25.

As to IRQQVTSVLYHCLGLGAIWG, the growth estimate is below -0.25.

Turning to AGDS, the growth estimate is below -0.25.

Turning to FSTISYLSGRFRRRW, the growth estimate is below -0.25.

Take RYC: the growth estimate is below -0.25.

For QFCA, the growth estimate was below -0.25.

On to PPQCHGKFL, for which the growth estimate was below -0.25.

Consider CGGMRRKRALCIFGF, for which the growth estimate is below -0.25.

On to IFSNRISTAFGDHRSVRRRH, for which the growth estimate is below -0.25.

For the substance KRVTFLDRLLLIRIFGR, the growth estimate is below -0.25.

Regarding VLKTRLLLRDDDGIWCQSGH, the growth estimate is below -0.25.

As to NLGGAFWGCTKSYVNCSYGY, the growth estimate is below -0.25.

Take LGIGVSVRGSVDANVIEGGM: the growth estimate is below -0.25.

As for WSSRARQRGLSAYTILEELA, the growth estimate is below -0.25.

For RGVHLTNERMGMRRSRICER, the growth estimate was below -0.25.

As to GLRRAGDEPAACEW, the growth estimate is below -0.25.

Turning to ICDV, the growth estimate was below -0.25.

With NQRRWRQSTSRWHPLIRVVQ, the growth estimate is below -0.25.

On to TSL, for which the growth estimate is below -0.25.

On to VKIQNAIQRSKHTLIRGCPG, for which the growth estimate is below -0.25.

For CLRFFC, the growth estimate was below -0.25.

As to FQTKPDHFDDSPMSGWAGL, the growth estimate is below -0.25.

Regarding SWLRKMYLYRLGFRWKEPLA, the growth estimate was below -0.25.

In the case of RVLRERTIAGRRILLFHLQP, the growth estimate was below -0.25.

Regarding KARR, the growth estimate was below -0.25.

In the case of YEEEEPLQWAAKGIG, the growth estimate is below -0.25.

Turning to NIWAARIHYMVA, the growth estimate is -0.241.

As to VAGLENTRGLRVDLRHLEGD, the growth estimate is below -0.25.

Consider YSWVRKECSRKHLSMRSPD, for which the growth estimate is below -0.25.

With EQTSQSNSLSFWP, the growth estimate was below -0.25.

In the case of TWGRYVNM, the growth estimate is below -0.25.

As for PGTLTANSQVTRIYVGFPSG, the growth estimate was below -0.25.

LFYTVTNQLFLRSNTCPVMT: the growth estimate is below -0.25.

As to RSSNMNVLVYDSSTRSRQPL, the growth estimate was below -0.25.

Consider CLLVLTELKRTT, for which the growth estimate was below -0.25.

As for SLQWRTCVSE, the growth estimate is below -0.25.

In the case of FFTWRECESDQARG, the growth estimate was -0.207.

For the substance FRNSKRRHRLIWRQRKNWAK, the growth estimate was below -0.25.

In the case of RKRRLKKGSGHKLGPRSKSG, the growth estimate is below -0.25.

In the case of LMCVDQWSSDTVTLRGGIRA, the growth estimate is below -0.25.

Take VAVWGHL: the growth estimate is below -0.25.

With FAVRVYAVFV, the growth estimate is below -0.25.

Consider AVITRVKGSG, for which the growth estimate is below -0.25.

On to VLTDPARRHFGYSVRGSTLS, for which the growth estimate was below -0.25.

Take VLIKRDT: the growth estimate is below -0.25.

CRTSVDRQALQHIGHSKIFT: the growth estimate is below -0.25.

Consider IPHYVSDSIRGQCRSATYGI, for which the growth estimate is below -0.25.

For PTSQIVRKIAGRI, the growth estimate is below -0.25.

In the case of SCTRRGHLRPLGWILTDLPV, the growth estimate is below -0.25.

With AILTLSVAL, the growth estimate was below -0.25.

Regarding RCPDEFHVGLLVVSEPNSES, the growth estimate was -0.238.

In the case of SNHFAKNIDYLDDMRHRTL, the growth estimate is below -0.25.

Turning to RNFVTNRLLPFRTGIKTYDA, the growth estimate is below -0.25.

Regarding FPRLVVIGYSSFDTRSHLFS, the growth estimate is below -0.25.

On to PNSDRIAFKDGRTGKVNIAC, for which the growth estimate is below -0.25.

Consider SCGVISRDRAPLFNGTL, for which the growth estimate is below -0.25.

Take INQFSGGLGW: the growth estimate was below -0.25.
